Data from patent publication US5874218.
For at least one entry, the source does not settle the construct or the ends of the probe. For some of these results: A weaker result is weaker than the reference pair of the same experiment.

Chains of the proteins cited; added tags and fusions are not shown. Chains listed by the source or under a name are the forms on record and can include a tag or linker.
hLH (printed hLS) (Homo sapiens), one chain, as listed by the source, chain 2 of 2: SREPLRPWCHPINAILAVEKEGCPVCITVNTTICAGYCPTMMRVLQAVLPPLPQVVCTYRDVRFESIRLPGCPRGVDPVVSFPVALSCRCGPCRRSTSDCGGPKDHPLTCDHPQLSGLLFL
hFSH (Homo sapiens), one chain, as listed by the source, chain 2 of 2: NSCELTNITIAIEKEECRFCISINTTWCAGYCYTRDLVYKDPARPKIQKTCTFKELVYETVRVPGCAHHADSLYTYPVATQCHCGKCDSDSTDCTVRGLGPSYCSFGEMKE
hTSH (thyroid stimulating hormone) (Homo sapiens), one chain, as listed by the source, chain 2 of 2: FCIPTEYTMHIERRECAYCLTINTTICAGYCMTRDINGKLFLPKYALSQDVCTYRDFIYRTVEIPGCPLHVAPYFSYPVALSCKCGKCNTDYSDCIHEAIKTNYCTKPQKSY
hCG (chorionic gonadotropin) (Homo sapiens), one chain, as listed by the source, chain 1 of 2: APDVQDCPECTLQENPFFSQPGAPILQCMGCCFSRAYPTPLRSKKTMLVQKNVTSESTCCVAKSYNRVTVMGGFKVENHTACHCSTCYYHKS

Assays:
Test in all cases: binding assay
[1] = system: hCG (chorionic gonadotropin) (Homo sapiens); settings: 2'-NH2 on all C and U; CITED; unable to bind with high affinity, especially with competing tRNA; purified native protein; label: internally radiolabeled
hFSH (Homo sapiens) = settings: 2'-NH2 on all C and U; CITED; unable to bind with high affinity, especially with competing tRNA; label: internally radiolabeled
[2] = system: hLH (printed hLS) (Homo sapiens); settings: 2'-NH2 on all C and U; CITED; unable to bind with high affinity, especially with competing tRNA; label: internally radiolabeled
[3] = system: hTSH (thyroid stimulating hormone) (Homo sapiens); settings: 2'-NH2 on all C and U; CITED; from US application 08/488,402; purified native protein; protein details: Becton Dickinson, Mr 27,700, 9 IU/mg; label: internally radiolabeled

Q: Does “GGGAGGACGAUGCGGAUGUUGGCAGCAGGGUCCGACGGCGUAACCUUGCCAGCUGCAGACGACUCGCCCGA [T-15]” bind [1]?
A: Result: binds more weakly

Q: Does “GGGAGGACGAUGCGGAUGUUGGCAGCAGGGUCCGACGGCGUAACCUUGCCAGCUGCAGACGACUCGCCCGA [T-15]” bind (hFSH (Homo sapiens))?
A: Result: binds more weakly

Q: Does “GGGAGGACGAUGCGGAUGUUGGCAGCAGGGUCCGACGGCGUAACCUUGCCAGCUGCAGACGACUCGCCCGA [T-15]” bind [2]?
A: Result: binds more weakly

Q: What about the Kd [3] of the same sequence?
A: The Kd was 2.5 nM.
